The results in this text go back to publication doi:10.1101/2025.03.09.642134.

Read-outs that look alike come from different tables or passages of the source. These are yes or no findings as the source states them, for the method shown. In cells and extracts the contact can be indirect. A yes stands for co-enrichment or nearness to the bait. Other partners may have been found.

Holding throughout (assay): affinity purification with mass spectrometry
Assay [1] deals with T1, NONO (paraspeckle core protein, DBHS family) (human (endogenous in A549)) (UniProt Q15233).
T1 sequence: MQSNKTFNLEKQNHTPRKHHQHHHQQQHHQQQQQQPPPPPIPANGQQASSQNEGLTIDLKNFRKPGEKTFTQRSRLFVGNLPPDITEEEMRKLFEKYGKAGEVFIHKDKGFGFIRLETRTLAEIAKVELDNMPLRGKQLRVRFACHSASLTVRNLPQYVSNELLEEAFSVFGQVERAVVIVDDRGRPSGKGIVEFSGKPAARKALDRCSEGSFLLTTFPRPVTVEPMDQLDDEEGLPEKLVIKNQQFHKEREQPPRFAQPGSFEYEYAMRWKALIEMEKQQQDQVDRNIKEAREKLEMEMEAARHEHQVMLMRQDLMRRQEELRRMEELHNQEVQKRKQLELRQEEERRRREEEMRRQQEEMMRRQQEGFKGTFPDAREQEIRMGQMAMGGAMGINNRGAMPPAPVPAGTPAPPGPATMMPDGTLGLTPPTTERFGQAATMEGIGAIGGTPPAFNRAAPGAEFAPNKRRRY

For assay [2], the target named is NP (influenza A virus nucleoprotein) (influenza A virus A/WSN/1933 (H1N1)) (UniProt P15682).
Substrate in assay [3]: NP (influenza A virus nucleoprotein) (influenza A virus A/WSN/1933 (H1N1)) (UniProt P15682)
This is another data set of the same source.

As for “NP (influenza A virus nucleoprotein) (from UniProt P15682 1-498)”, the binding entry in assay [1] is “binds”. In the case of HNRNPK (from UniProt P61978 1-463), in assay [2], the binding entry is on record as “binds”.

B1: MATR3 (protein, UniProt P43243 1-847)
chain: MSKSFQQSSLSRDSQGHGRDLSAAGIGLLAAATQSLSMPASLGRMNQGTARLASLMNLGMSSSLNQQGAHSALSSASTSSHNLQSIFNIGSRGPLPLSSQHRGDADQASNILASFGLSARDLDELSRYPEDKITPENLPQILLQLKRRRTEEGPTLSYGRDGRSATREPPYRVPRDDWEEKRHFRRDSFDDRGPSLNPVLDYDHGSRSQESGYYDRMDYEDDRLRDGERCRDDSFFGETSHNYHKFDSEYERMGRGPGPLQERSLFEKKRGAPPSSNIEDFHGLLPKGYPHLCSICDLPVHSNKEWSQHINGASHSRRCQLLLEIYPEWNPDNDTGHTMGDPFMLQQSTNPAPGILGPPPPSFHLGGPAVGPRGNLGAGNGNLQGPRHMQKGRVETSRVVHIMDFQRGKNLRYQLLQLVEPFGVISNHLILNKINEAFIEMATTEDAQAAVDYYTTTPALVFGKPVRVHLSQKYKRIKKPEGKPDQKFDQKQELGRVIHLSNLPHSGYSDSAVLKLAEPYGKIKNYILMRMKSQAFIEMETREDAMAMVDHCLKKALWFQGRCVKVDLSEKYKKLVLRIPNRGIDLLKKDKSRKRSYSPDGKESPSDKKSKTDGSQKTESSTEGKEQEEKSGEDGEKDTKDDQTEQEPNMLLESEDELLVDEEEAAALLESGSSVGDETDLANLGDVASDGKKEPSDKAVKKDGSASAAAKKKLKKVDKIEELDQENEAALENGIKNEENTEPGAESSENADDPNKDTSENADGQSDENKDDYTIPDEYRIGPYQPNVPVGIDYVIPKTGFYCKLCSLFYTNEEVAKNTHCSSLPHYQKLKKFLNKLAEERRQKKET
Regarding B1, the binding entry in assay [3] was “binds”.
